Measured values reported in paper PMC10441969, “Small protein Cgl2215 enhances phenolic tolerance by promoting MytA activity in Corynebacterium glutamicum” (Stress Biology, 2022).
Results are given in words; binding and its absence hold for the method and conditions named. For some assays here: In cells and extracts the contact can be indirect. Some binding calls cover weakened binding; strength is not graded here. For some assays here: Where a sequence is shown, tags or fusion partners need not be part of it. Blank lines part the entries; values can stand above or below the binder they belong to.

Assays:
[1] = molecular target: T1, GST-Cgl2215 (C. glutamicum) (UniProt Q8NNI6); assay: pull-down; His6-MytA and GST-Cgl2215 co-expressed in E. coli BL21(DE3); lysate supernatant loaded onto GST-binding resin, washed with five column volumes; western blot against GST or His
T1 sequence: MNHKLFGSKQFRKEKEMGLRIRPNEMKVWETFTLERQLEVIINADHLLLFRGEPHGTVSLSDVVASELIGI

[2] = molecular target: T2, T25-Cgl2215 (C. glutamicum) (UniProt Q8NNI6); assay: two-hybrid; bacterial two-hybrid in E. coli BTH101 (T18-mytA/T25-cgl2215); colony colour on X-Gal plates and β-galactosidase activity, 30 °C
T2 sequence: T1 sequence

binding [1]: binds
B1: His6-MytA (enzyme, UniProt P0C1D6 44-657)
chain: QSSNLSSDAVIGSIAQGVTDGLTDYLKPRVEELPAGEVTYPEIAGLPDGVRVISAEWATSKHVILTIQSAAMPERPIKVQLLLPRDWYSSPNREFPEIWALDGLRAIEEQSGWTIETNIEQYYADKNAIVVLPVGGESSFYSDWEGPNNGKNYQWETFLTQELAPILDKGFRSNTDRAITGISMGGTAAVNIATHHPDMFKFVGSFSGYLDTTSAGMPIAISAALADAGGYDANAMWGPVGSERWQENDPKSNVDKLKGKTIYVSSGNGADDFGKEGSVAIGPANAAGVGLEVISRMTSQTFVDRASQAGVEVVASFRPSGVHSWEYWQFEMTQAFPHIANALGMSTEDRGVECAPVGAIADAVADGAMGTCLTNEYDVTGGKAQDFANGRAYWSANTGAFGLVGRINARYSELGGPASWLGYPTSSELKTPDGRGRFVTFEHGSIYWTATTGPWEIPGDMLAAWGTQDYEKGSLGYPTGAAVEYNGGLRQQFEGGYVFRTSNNQSYWVRGEISKKYAEDGIFAQLGFPTGNEKLINGGAFQEFEKGNIYWSASTGAHVILHGDIFDAWGAKGWEQGEYGFPTSDQTAITAGGQTIDFQNGTIRQVNGRIEESR

binding [2]: binds
B2: T18-MytA (enzyme, UniProt P0C1D6 1-657)
chain: MRDTAFRSIKAKAQAKRRSLWIAAGAVPTAIALTMSLAPMASAQSSNLSSDAVIGSIAQGVTDGLTDYLKPRVEELPAGEVTYPEIAGLPDGVRVISAEWATSKHVILTIQSAAMPERPIKVQLLLPRDWYSSPNREFPEIWALDGLRAIEEQSGWTIETNIEQYYADKNAIVVLPVGGESSFYSDWEGPNNGKNYQWETFLTQELAPILDKGFRSNTDRAITGISMGGTAAVNIATHHPDMFKFVGSFSGYLDTTSAGMPIAISAALADAGGYDANAMWGPVGSERWQENDPKSNVDKLKGKTIYVSSGNGADDFGKEGSVAIGPANAAGVGLEVISRMTSQTFVDRASQAGVEVVASFRPSGVHSWEYWQFEMTQAFPHIANALGMSTEDRGVECAPVGAIADAVADGAMGTCLTNEYDVTGGKAQDFANGRAYWSANTGAFGLVGRINARYSELGGPASWLGYPTSSELKTPDGRGRFVTFEHGSIYWTATTGPWEIPGDMLAAWGTQDYEKGSLGYPTGAAVEYNGGLRQQFEGGYVFRTSNNQSYWVRGEISKKYAEDGIFAQLGFPTGNEKLINGGAFQEFEKGNIYWSASTGAHVILHGDIFDAWGAKGWEQGEYGFPTSDQTAITAGGQTIDFQNGTIRQVNGRIEESR
